Measurements reported in PubChem BioAssay AID1259277 (Sanger Institute, 2017)
Shown is a random part of 160 reagents tested. Over the whole deposit, 48 (30%) got an active call. 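Calls refer to individual siRNAs; confirming a gene required at least two siRNAs in multiple cell lines.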 Reagents against one gene are numbered here. Not all columns of the deposit are shown. No sequences are given here. The record does not give: the amount of reagent, the time to read-out.

- Screen: 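Kinases whose depletion works synergistically with BYL719, cetuximab or trametinib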 (follow-up of hits)
- Cells: LS123 human colorectal cancer cells
- Knock-down reagent: single siRNA against human genes
- Challenge: anchor drug BYL719 at 1 µM, cetuximab at 5 µg/ml or trametinib at 10 nM, or DMSO vehicle only, given one day after siRNA delivery
- Measured: 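Replicate-averaged viability normalised to non-targeting pool 2 siRNA, and a synergy score contrasting observed combination viability with single siRNA and single drug effects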
- Reading the numbers: synergy score with trametinib: higher = stronger synergistic killing with trametinib; synergy score with BYL719: higher = stronger synergistic killing with BYL719; synergy score with cetuximab: higher = stronger synergistic killing with cetuximab
- Call rule: 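An siRNA counts as active when its synergy score is above 0.10 with one or more anchor drugs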
- Calls: active = synergy with at least one anchor drug; inactive = no synergy with any anchor drug

AK2 (GeneID 204) #1
- synergy score with trametinib: 0.167
- synergy score with BYL719: -0.0326
- synergy score with cetuximab: -0.000581
- call: active

AK2 (GeneID 204) #2
- synergy score with trametinib: -0.0781
- synergy score with BYL719: -0.192
- synergy score with cetuximab: -0.166
- call: inactive

AK2 (GeneID 204) #3
- synergy score with trametinib: 0.0415
- synergy score with BYL719: -0.205
- synergy score with cetuximab: 0.0427
- call: inactive

AK2 (GeneID 204) #4
- synergy score with trametinib: 0.161
- synergy score with BYL719: 0.0259
- synergy score with cetuximab: -0.0918
- call: active

MAP3K8 (GeneID 1326) #1
- synergy score with trametinib: -0.195
- synergy score with BYL719: -0.244
- synergy score with cetuximab: -0.118
- call: inactive

MAP3K8 (GeneID 1326) #2
- synergy score with trametinib: 0.0656
- synergy score with BYL719: -0.0569
- synergy score with cetuximab: -0.00979
- call: inactive

MAP3K8 (GeneID 1326) #3
- synergy score with trametinib: 0.0639
- synergy score with BYL719: 0.0179
- synergy score with cetuximab: -0.158
- call: inactive

MAP3K8 (GeneID 1326) #4
- synergy score with trametinib: -0.00156
- synergy score with BYL719: -0.159
- synergy score with cetuximab: -0.152
- call: inactive

The list goes on; the last 2 above are carried over.
MAP3K8 (GeneID 1326) #3
- synergy score with trametinib: 0.0639
- synergy score with BYL719: 0.0179
- synergy score with cetuximab: -0.158
- call: inactive

MAP3K8 (GeneID 1326) #4
- synergy score with trametinib: -0.00156
- synergy score with BYL719: -0.159
- synergy score with cetuximab: -0.152
- call: inactive

GRK5 (GeneID 2869) #1
- synergy score with trametinib: -0.0474
- synergy score with BYL719: -0.263
- synergy score with cetuximab: -0.078
- call: inactive

GRK5 (GeneID 2869) #2
- synergy score with trametinib: 0.0423
- synergy score with BYL719: -0.202
- synergy score with cetuximab: -0.044
- call: inactive

GRK5 (GeneID 2869) #3
- synergy score with trametinib: 0.0492
- synergy score with BYL719: -0.146
- synergy score with cetuximab: -0.107
- call: inactive

GRK5 (GeneID 2869) #4
- synergy score with trametinib: 0.0226
- synergy score with BYL719: -0.14
- synergy score with cetuximab: -0.107
- call: inactive

HSPB8 (GeneID 26353) #1
- synergy score with trametinib: 0.21
- synergy score with BYL719: -0.0786
- synergy score with cetuximab: -0.125
- call: active

HSPB8 (GeneID 26353) #2
- synergy score with trametinib: 0.106
- synergy score with BYL719: -0.166
- synergy score with cetuximab: -0.12
- call: active

HSPB8 (GeneID 26353) #3
- synergy score with trametinib: -0.0385
- synergy score with BYL719: 0.00396
- synergy score with cetuximab: 0.0189
- call: inactive

HSPB8 (GeneID 26353) #4
- synergy score with trametinib: 0.153
- synergy score with BYL719: -0.0914
- synergy score with cetuximab: -0.109
- call: active
